The record followed here is paper PMC3948108.

Amino acid sequences for entries named in this document (tags omitted). A change or cut given only in a name is not applied to a line headed by its entry.
UniProt P27091: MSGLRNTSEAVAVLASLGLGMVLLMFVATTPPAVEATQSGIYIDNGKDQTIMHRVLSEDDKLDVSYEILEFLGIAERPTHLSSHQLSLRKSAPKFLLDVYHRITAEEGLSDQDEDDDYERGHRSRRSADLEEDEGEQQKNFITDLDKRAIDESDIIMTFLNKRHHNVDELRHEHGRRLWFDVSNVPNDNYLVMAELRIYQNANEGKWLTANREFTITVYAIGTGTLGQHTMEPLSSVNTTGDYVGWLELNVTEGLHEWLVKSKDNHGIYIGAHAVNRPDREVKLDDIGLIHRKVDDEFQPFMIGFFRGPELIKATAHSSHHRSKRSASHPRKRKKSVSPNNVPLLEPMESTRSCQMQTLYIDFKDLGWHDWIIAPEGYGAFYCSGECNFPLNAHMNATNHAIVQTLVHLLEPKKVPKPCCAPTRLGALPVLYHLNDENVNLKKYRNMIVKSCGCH
UniProt P07713: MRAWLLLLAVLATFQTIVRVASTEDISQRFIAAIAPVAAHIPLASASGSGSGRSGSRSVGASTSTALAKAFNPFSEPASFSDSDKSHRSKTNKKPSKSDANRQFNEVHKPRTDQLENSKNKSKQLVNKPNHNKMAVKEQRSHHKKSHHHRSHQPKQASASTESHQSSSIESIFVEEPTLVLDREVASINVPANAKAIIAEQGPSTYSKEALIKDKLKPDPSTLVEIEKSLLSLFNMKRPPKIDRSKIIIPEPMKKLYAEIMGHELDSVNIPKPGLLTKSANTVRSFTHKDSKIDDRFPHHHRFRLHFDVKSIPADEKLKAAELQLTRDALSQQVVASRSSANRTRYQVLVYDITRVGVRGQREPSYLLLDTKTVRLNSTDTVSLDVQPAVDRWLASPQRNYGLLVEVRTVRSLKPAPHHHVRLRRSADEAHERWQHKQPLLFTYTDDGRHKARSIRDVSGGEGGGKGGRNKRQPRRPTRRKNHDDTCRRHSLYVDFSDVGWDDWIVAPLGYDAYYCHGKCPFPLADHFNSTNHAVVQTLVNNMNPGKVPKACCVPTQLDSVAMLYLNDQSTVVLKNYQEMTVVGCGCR

In the experiment the target is GFP-tagged Gbb (Glass bottom boat) (Drosophila (D. melanogaster)) (UniProt P27091). Briefly: co-IP; lysate of 30 adult midguts coexpressing Dpp-HA and Gbb-GFP (Myo1A^ts, 29°C, 5 days); lysis buffer 50 mM Tris-HCl pH 8.0, 100 mM NaCl, 1% NP40, 10% glycerol, 1.5 mM EDTA; IP with rabbit anti-GFP antibody and protein A beads overnight at 4°C; western blot with anti-GFP and anti-HA. (A western blot detects proteins with antibodies after separation by electrophoresis.)

No constants are given. Whether binding was seen depends on the method and setting. In cells and extracts the contact can be indirect. A result given as binding can be weak or reduced; the word gives no strength.

Turning to “HA-tagged Dpp (Decapentaplegic) (from UniProt P07713) (ligand)”, the binding entry is listed as “binds”.
